Measured values taken from the supplement of paper PMC12823440, “Inhibitors supercharge kinase turnover through native proteolytic circuits” (Nature, 2025).
Structures can show the parent of a compound that is named as a salt. The list shows a part of the results. Hit calls seldom repeat between salt and free forms of one compound.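 Kinases were expressed as nanoluciferase fusions in K562 cells and luminescence was read every 4 h between 2 and 18 h as percent of control, DMSO set to 100% and a positive control to 0%. A time point counts as decreased when the signal drops significantly (2 sigma). The hit call is the authors' own, does not follow from the count of time points alone, and its rule is not shown.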

Protein sequences, listed by entry. Tags and fused reporters are not part of them.
UniProt Q14289, whole entry, looked up: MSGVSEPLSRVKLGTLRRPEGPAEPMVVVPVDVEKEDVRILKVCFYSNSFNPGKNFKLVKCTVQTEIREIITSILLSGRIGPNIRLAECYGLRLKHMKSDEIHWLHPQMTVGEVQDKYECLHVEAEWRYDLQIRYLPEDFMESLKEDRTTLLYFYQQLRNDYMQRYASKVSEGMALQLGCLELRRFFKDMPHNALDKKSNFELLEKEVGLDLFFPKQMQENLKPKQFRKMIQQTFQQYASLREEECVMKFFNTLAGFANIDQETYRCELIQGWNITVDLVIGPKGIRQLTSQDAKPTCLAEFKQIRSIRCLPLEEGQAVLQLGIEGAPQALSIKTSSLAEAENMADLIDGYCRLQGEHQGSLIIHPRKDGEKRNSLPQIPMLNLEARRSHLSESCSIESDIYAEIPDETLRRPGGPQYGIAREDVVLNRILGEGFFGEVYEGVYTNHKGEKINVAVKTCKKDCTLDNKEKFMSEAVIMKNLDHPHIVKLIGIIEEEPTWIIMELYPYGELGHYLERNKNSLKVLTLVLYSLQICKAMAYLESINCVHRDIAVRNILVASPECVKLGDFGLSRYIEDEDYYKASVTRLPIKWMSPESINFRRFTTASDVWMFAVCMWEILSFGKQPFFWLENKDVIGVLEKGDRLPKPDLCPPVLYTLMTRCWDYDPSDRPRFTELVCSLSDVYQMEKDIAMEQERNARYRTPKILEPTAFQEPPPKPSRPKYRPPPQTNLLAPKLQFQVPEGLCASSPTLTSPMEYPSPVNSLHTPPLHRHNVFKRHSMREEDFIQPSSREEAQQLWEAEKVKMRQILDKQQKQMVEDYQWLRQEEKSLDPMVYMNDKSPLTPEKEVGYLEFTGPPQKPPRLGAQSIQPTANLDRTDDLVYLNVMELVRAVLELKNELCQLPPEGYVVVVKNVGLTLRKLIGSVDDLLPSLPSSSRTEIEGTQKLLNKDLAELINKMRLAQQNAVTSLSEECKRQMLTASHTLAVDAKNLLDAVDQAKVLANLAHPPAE

What follows are compounds tested against PTK2B (UniProt Q14289) (assay: kinase-Nluc reporter destabilization hit call (1 = scored as downregulated) (binary); higher = compound decreases kinase abundance). Conditions: K562; 2-18 h.

kinase-Nluc reporter destabilization hit call, inactive:
O=C(CSC1=NCCN1)NC1CCCCCC1 [ICCB-19 (hydrochloride)] (2.5 µM) 0
CCCS(=O)(=O)Nc1ccc(F)c(C(=O)c2c[nH]c3ncc(-c4ccc(Cl)cc4)cc23)c1F [Vemurafenib] (10 µM) 0
Cc1ccc(OCCSc2ncccn2)c(Br)c1 [ZLN024 (hydrochloride)] (10 µM) 0
Nc1ncnc2c1c(-c1ccc(Oc3ccccc3)cc1)nn2C1CCCC1 (2.5 µM) 0
COc1ncc(Cl)cc1S(=O)(=O)Nc1ccc(F)c(C#Cc2cnc(N)nc2)c1F (2.5 µM) 0
Cc1ccc(CNc2ncnc3ccc(-c4ccc(CO)o4)cc23)o1 (10 µM) 0
NC(=O)c1nnc(N[C@@H]2CCCC[C@@H]2N)nc1Nc1cccc2cc[nH]c12 (10 µM) 0
CNc1nc(Nc2ccc(C(=O)N3CCOCC3)cc2OC)nc2[nH]cc(Cl)c12 (2.5 µM) 0
CCNc1nc(Nc2cc(F)c(C(=O)N3CCOCC3)cc2OC)ncc1C(F)(F)F [GNE-7915 (tosylate)] (10 µM) 0
CCN1CCN(Cc2ccc(Nc3ncc(F)c(-c4cc(F)c5nc(C)n(C(C)C)c5c4)n3)nc2)CC1 [Abemaciclib] (2 µM) 0
COCCNc1nc2ccc(C#CC3(O)CCCCC3)cc2n1-c1ccnc(N)n1 (10 µM) 0
OCCn1cc(-c2ccc3c(c2)CC/C3=N\O)c(-c2ccncc2)n1 (10 µM) 0
O=C1N[C@@H](Cc2c[nH]c3ccccc23)C(=O)N2CCC[C@@H]12 [Brevianamide F] (10 µM) 0
Cn1nccc1Nc1nccc(-c2ccn([C@H](CO)c3ccc(Cl)c(F)c3)c(=O)c2)n1 [Ravoxertinib] (10 µM) 0
O=C(NCCN1CCOCC1)c1cc2c(Oc3ccc(NC(=O)C4(C(=O)Nc5ccc(F)cc5)CC4)cc3)ccnc2[nH]1 [Tyrosine kinase inhibitor] (10 µM) 0
COc1cc2c(N3CCN(C(=O)Nc4ccc(OC(C)C)cc4)CC3)ncnc2cc1OCCCN1CCCCC1 [Tandutinib (hydrochloride)] (10 µM) 0
COc1cc(/C=C/C(=O)NCC(O)c2ccc(O)cc2)ccc1O (stereo not drawn) [N-Feruloyloctopamine] (2.5 µM) 0
COc1cc2nccc(Oc3ccc(NC(=O)NC4CC4)c(Cl)c3)c2cc1C(N)=O [Lenvatinib (mesylate)] (10 µM) 0
CN1CCN(c2cccc(Nc3nc4c(-c5ccc(S(C)(=O)=O)cc5)cccn4n3)c2)CC1 (10 µM) 0
C=C(CC[C@@H](C(=O)O)[C@H]1[C@H](O)C[C@@]2(C)C3=C(CC[C@]12C)[C@@]1(C)CC[C@H](OC(C)=O)C(C)(C)[C@@H]1CC3)C(C)C [Pachymic acid] (10 µM) 0
O=c1[nH]c(=O)n([C@@H]2O[C@H](CO)[C@@H](O)[C@@H]2O)cc1/C=C/Br [Sorivudine] (10 µM) 0
NC(=O)c1ccc(-c2nc(-c3ccc4c(c3)OCCO4)c(-c3ccccn3)[nH]2)cc1 (10 µM) 0
CC#CC(=O)Nc1ccc2ncnc(Nc3cccc(Br)c3)c2c1 (10 µM) 0
CCc1c(C(=O)NNC(=O)C(O)c2cc(F)cc(F)c2)ccc(O)c1C (stereo not drawn) (10 µM) 0
CC(=O)c1c(C)cc2cccc(O)c2c1O [Nepodin] (10 µM) 0
Cc1c(-c2c(F)cc(C(N)=O)c3[nH]c4c(c23)CC[C@H](C(C)(C)O)C4)cccc1-n1c(=O)c2cccc(F)c2n(C)c1=O (2.5 µM) 0
CCc1cc2c(cc1N1CCC(N3CCOCC3)CC1)C(C)(C)c1[nH]c3cc(C#N)ccc3c1C2=O [Alectinib] (10 µM) 0
FC(F)c1nc2ccccc2n1-c1nc(N2CCOCC2)nc(N2CCOCC2)n1 (2 µM) 0
FC(F)(c1ccc2ncccc2c1)c1nnc2ccc(-c3ccncc3)nn12 (10 µM) 0
Cn1cc(-c2cnn3c(N)c(Br)c([C@@H]4CCCNC4)nc23)cn1 (2.5 µM) 0
C[C@@H]1COCCN1c1cc(C2([S@@](C)(=N)=O)CC2)nc(-c2ccnc3[nH]ccc23)n1 [(S)-Ceralasertib] (10 µM) 0
CC#CC(=O)N1CC[C@@H](n2c(=O)n(-c3ccc(Oc4ccccc4)cc3)c3c(N)ncnc32)C1 [Tirabrutinib] (10 µM) 0
C[C@@]1(c2ncncc2F)NC(=O)c2cc(-c3cn[nH]c3)ccc21 (10 µM) 0
COc1ccc(Cl)c(Nc2nc3ccccc3nc2NS(=O)(=O)c2cccc(NC(=O)C(C)(C)N)c2)c1 [Pilaralisib] (10 µM) 0
O=Nc1c(-c2c(O)[nH]c3ccc(I)cc23)[nH]c2ccccc12 [5-Iodo-indirubin-3'-monoxime] (10 µM) 0
COc1cc2nccc(Oc3ccc(NC(=O)NC4CC4)c(Cl)c3)c2cc1C(N)=O [Lenvatinib] (10 µM) 0
C[C@]1(O)CCN(c2nc(N3C[C@H](O)[C@@H](O)C3)cc(C(F)(F)F)c2C#N)C1 (10 µM) 0
Cn1cnc(Cn2ccc3ccc(CNCc4[nH]c5ccccc5c4[C@H]4NC(=O)c5ccc(O)cc54)cc32)c1 (10 µM) 0

3 entries drawn at random from the list so far:
kinase-Nluc reporter destabilization hit call, inactive:
CCN1CCN(Cc2ccc(Nc3ncc(F)c(-c4cc(F)c5nc(C)n(C(C)C)c5c4)n3)nc2)CC1 [Abemaciclib] (2 µM) 0
Cn1nccc1Nc1nccc(-c2ccn([C@H](CO)c3ccc(Cl)c(F)c3)c(=O)c2)n1 [Ravoxertinib] (10 µM) 0
Cc1ccc(OCCSc2ncccn2)c(Br)c1 [ZLN024 (hydrochloride)] (10 µM) 0
